No constants are given. Whether binding was seen depends on the method and setting.
Biological target: T1, rat islet amyloid polypeptide (rat), P12969
T1 chain: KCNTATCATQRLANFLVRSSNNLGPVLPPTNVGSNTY
Experiment: SDS-PAGE and Western blot of oligomers; peptide incubated at 37°C for 1 hr with gentle shaking; Western blot with rabbit anti-oligomer antibody A11 and rabbit anti-IAPP; rIAPP 20 uM as negative control; both purified
Conditions: remark: other sources report otherwise

binding: no binding (tested: 20 μM)
B1: rat islet amyloid polypeptide, P12969 38-74 (peptide)
peptide: KCNTATCATQRLANFLVRSSNNLGPVLPPTNVGSNTY

From PMC4507941 (PLoS ONE, 2015)
